Results on 2 molecules are retold here after publication PMC9427776, “TTYH family members form tetrameric complexes at the cell membrane” (Communications Biology, 2022).

Where a chain is given by its changes, count along the chain named. Names may count otherwise. These are yes or no findings as the source states them, for the method shown. Some results given as binding are weak or reduced against the parent protein; the word gives no strength. Sequences can lack the tags named with a protein.

In one assay the target is mTTYH3-GFP C299A (mouse) (UniProt Q6P5F7). Briefly: SEC; FSEC of HEK 293 cells solubilised in 1% DDM, Superdex 200 Increase, 150 mM NaCl, 50 mM Tris-HCl pH 7.5, 1 mM DDM; EGFP fluorescence; also after 10 min at 20-80 C (FSEC-TS) or with 20 mM 2-ME, both of which shift the population toward dimers. (SEC sorts molecules by how far they enter the pores of the column.)
A further assay deals with mTTYH3-GFP C366A (mouse) (UniProt Q6P5F7). Described as above.

B1: mTTYH3-GFP C299A (protein, UniProt Q6P5F7 1-524)
chain: MAGVSYAAPWWVSLLHRLPHFDLRWEATSSQFRPEDADYQQALLLLGATALACLALDLLFLLFYSFWLCCRRRKTDEHLDADCCCTAWCVIITTLVCSAGIAVGFYGNGETSDGIHRATYSLRHANRTVAGVQDRVWDTAAALNRTAEPNLQSLERQLAGRQEPLRAVQRLQTLLGTLLGYTAAIPFWRNPGVSLEVLAEQVDLYDWYRWLGYLGLLLLDVIICLLVLVGLIRSSKGILVGVCLLGVLALVISWGALGLELAVSVGSSDFCVDPDTFVTKMVEEHSVLSGDILQYYLAASPRATNPFQQKLSGSHKALVEMQDVVAELLRNVPREHPATKDPLLRVQEVLNGTEVNLQHLTALVDCRSLHLDYVQALTGFCYDGVEGLIYLALFSFVTALMFSSIVCSIPHTWQQKRGPDDDGEEETAPGPRQAHDSLYRVHMPSLYSCGSSYGSEASIPAAAHTVSNAPVTEYMSQNANFQNPRCENTPLIGRESPPPSYTSSMRAKYLATSQPRPDSSGSGH
For B1, the binding entry with mTTYH3-GFP C299A (mouse) was “binds”.

B2: mTTYH3-GFP C366A (protein, UniProt Q6P5F7 1-524)
chain: B1 chain with A299C, C366A
Consider B2, for which the binding result with mTTYH3-GFP C366A (mouse) is recorded as “binds”.
